# Source: PubChem BioAssay AID1671190 (National Center for Advancing Translational Sciences (NCATS), 2021)
# Protein sequences, listed by entry. Tags and fused reporters are not part of them. Lines headed by an entry give the natural chain unless they say otherwise; changes in a name come on top.
# UniProt P18054: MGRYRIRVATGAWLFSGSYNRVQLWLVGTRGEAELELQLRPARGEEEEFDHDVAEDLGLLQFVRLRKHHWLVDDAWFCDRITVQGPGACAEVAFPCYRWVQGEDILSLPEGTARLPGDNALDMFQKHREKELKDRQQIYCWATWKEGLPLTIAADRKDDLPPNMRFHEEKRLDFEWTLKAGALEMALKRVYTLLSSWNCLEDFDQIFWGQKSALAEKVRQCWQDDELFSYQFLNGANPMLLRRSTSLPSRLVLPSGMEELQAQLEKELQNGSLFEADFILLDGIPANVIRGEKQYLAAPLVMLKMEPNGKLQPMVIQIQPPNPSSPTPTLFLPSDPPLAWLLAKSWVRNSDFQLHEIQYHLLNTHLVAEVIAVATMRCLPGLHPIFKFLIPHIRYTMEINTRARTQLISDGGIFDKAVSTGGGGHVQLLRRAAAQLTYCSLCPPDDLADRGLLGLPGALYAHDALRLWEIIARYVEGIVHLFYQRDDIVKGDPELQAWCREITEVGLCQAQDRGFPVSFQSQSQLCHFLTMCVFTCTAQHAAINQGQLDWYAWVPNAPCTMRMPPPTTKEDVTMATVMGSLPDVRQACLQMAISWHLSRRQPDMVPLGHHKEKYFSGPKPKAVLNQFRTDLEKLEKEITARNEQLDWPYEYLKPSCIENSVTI
# Out of some 580,000 compounds screened, about 6,100 (1.1%) were called active. This list was built around the results that the source calls inconclusive (neither active nor inactive); the mix of calls is not that of the screen. Calls follow the shape of the dose curve; as a rule, active = well fitted inhibition curve with a large enough effect; inconclusive = small, poorly fitted or top-dose-only effect, or another doubt; inactive = no such curve, though single readings can be large or run the other way. A potency beside an inconclusive call is a rough fit, not a confirmed value.
# Target: Polyunsaturated fatty acid lipoxygenase ALOX12 (Homo sapiens) (UniProt P18054)
# Assay: Primary qHTS assay for inhibitors of human arachidonate 12S-lipoxygenase (ALOX12): Round 2
# Details: purified 12hLO, xylenol orange hydroperoxide absorbance; series mostly up to 108 µM
# How it was run: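 Hydroperoxide product was detected by ferrous iron/xylenol orange as the 573 to 405 nm absorbance ratio. Arachidonic acid at 40 uM (final) was turned over for 30 min at room temperature by 150 nM human 12hLO, pH 7.0 Hepes buffer, after 15 min compound preincubation.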
# Potency is read from the fitted curve at half-maximal effect.
row,Structure (SMILES),Potency
1,COc1ccc(S(=O)(=O)N(C)c2ccc(C(=O)N3CCCC3)cc2)cc1,inactive
2,O=C(O)c1ccc(Nc2nc3ccc(Cl)cc3[nH]2)cc1,"inconclusive: 31.6 µM [inhibitor, partial curve, poor fit]"
3,C=CS(=O)(=O)N(Cc1ccccc1Br)[C@H](CO)CC(C)C,"inconclusive: 89.1 µM [inhibitor, partial curve, poor fit]"
4,C=CCNc1nc(C(=O)OC(C)C(=O)Nc2ccc(F)c(F)c2F)cs1 (stereo not drawn),"inconclusive: 79.4 µM [inhibitor, single point]"
5,CC1CCCN(C2=C(NS(=O)(=O)c3ccc(Cl)cc3)C(=O)c3ccccc3C2=O)C1 (stereo not drawn),"inconclusive: 31.6 µM [inhibitor, partial curve, poor fit]"
6,O=C(C[n+]1ccccc1)Nc1ccccc1Br,"inconclusive: 50.1 µM [inhibitor, partial curve, poor fit]"
7,Cc1ccc(F)cc1C(=O)N1CCCCC1c1cc(C(=O)NCc2ccccc2)no1 (stereo not drawn),"inconclusive: 100 µM [inhibitor, single point]"
8,O=C(COC(=O)CSc1ccc([N+](=O)[O-])cc1)NC1CCCCCCC1,"inconclusive: 44.7 µM [inhibitor, partial curve, poor fit]"
9,Cc1cc2nn(-c3ccccc3)nc2cc1NC(=O)COc1ccc(Cl)cc1,inactive
10,COc1ccc(C(C#N)=C2C=CC(=NO)c3ccccc32)cc1,active: 39.8 µM
11,Cc1cc(=O)nc2c3ccccc3n(CC(=O)NC(C)c3ccc4c(c3)OCCO4)n12 (stereo not drawn),"inconclusive: 4.47 µM [inhibitor, full curve, poor fit]"
12,O=C(Nc1onc2c1CCCC2)c1cccc(Cl)c1,"inconclusive: 141 µM [inhibitor, partial curve, poor fit]"
13,Cc1ccsc1CN1CCCN(S(=O)(=O)c2ccccc2)CCC(=O)NCC1,inactive
14,CC(=O)Nc1ccc(NC(=O)CCc2nc3ccccc3c(=O)[nH]2)cc1,"inconclusive: 28.2 µM [inhibitor, partial curve, poor fit]"
15,O=C(CCC[C@@H]1[C@H]2CCCN3CCC[C@@H](CN1C(=O)NCc1ccc(F)cc1)[C@@H]23)NCC1CC1,inactive
16,CCC(C)N1CCN(S(=O)(=O)c2ccc(NC(C)=O)cc2)CC1 (stereo not drawn),"inconclusive: 1.12 µM [inhibitor, full curve, poor fit]"
17,COc1cccc2sc3ccc(NCCC4CCCN4C)cc3c(=O)c12 (stereo not drawn),"inconclusive: 35.5 µM [inhibitor, partial curve, poor fit]"
18,COc1ccc(-c2oc3cc(O)c(OC)c(O)c3c(=O)c2OC)cc1O,"inconclusive: 100 µM [inhibitor, single point]"

# As entered above:
# Entry of COc1cccc2sc3ccc(NCCC4CCCN4C)cc3c(=O)c12 (stereo not drawn) under Potency: inconclusive: 35.5 µM [inhibitor, partial curve, poor fit]
# Entry of O=C(COC(=O)CSc1ccc([N+](=O)[O-])cc1)NC1CCCCCCC1 under Potency: inconclusive: 44.7 µM [inhibitor, partial curve, poor fit]
